Assay in all cases: log2 fold change, soluble protein after heating vs DMSO (PISA); higher = thermal stabilisation; K562 lysate, 10 uM; active = over 0.2 and 3.5 SD of the protein, either way, in both replicates (recomputed)
Compound in one experiment: CCCS(=O)(=O)Nc1ccc(F)c(C(=O)c2c[nH]c3ncc(-c4ccc(Cl)cc4)cc23)c1F [vemurafenib]
In a few lines:
(§1)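 Dounce homogenisation of K562 pellets in PBS pH 7.4 with 1 mM MgCl2 produced a crude extract, used at 1 mg/mL protein. Exposure to 10 μM compound lasted 30 min, and aliquots were then heated for 3 min across 48°C-58°C, pooled and brought to 0.5% NP-40 at 4°C. The supernatant after 21,000xg for 90 min was quantified by TMTpro 16plex LC-MS/MS with channel sums equalised. Duplicate values are given as log-two fold change in thermal stability relative to solvent controls.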

Protein sequences, listed by entry. Tags and fused reporters are not part of them. Lines headed by an entry give the natural chain unless they say otherwise; changes in a name come on top.
UniProt P07686: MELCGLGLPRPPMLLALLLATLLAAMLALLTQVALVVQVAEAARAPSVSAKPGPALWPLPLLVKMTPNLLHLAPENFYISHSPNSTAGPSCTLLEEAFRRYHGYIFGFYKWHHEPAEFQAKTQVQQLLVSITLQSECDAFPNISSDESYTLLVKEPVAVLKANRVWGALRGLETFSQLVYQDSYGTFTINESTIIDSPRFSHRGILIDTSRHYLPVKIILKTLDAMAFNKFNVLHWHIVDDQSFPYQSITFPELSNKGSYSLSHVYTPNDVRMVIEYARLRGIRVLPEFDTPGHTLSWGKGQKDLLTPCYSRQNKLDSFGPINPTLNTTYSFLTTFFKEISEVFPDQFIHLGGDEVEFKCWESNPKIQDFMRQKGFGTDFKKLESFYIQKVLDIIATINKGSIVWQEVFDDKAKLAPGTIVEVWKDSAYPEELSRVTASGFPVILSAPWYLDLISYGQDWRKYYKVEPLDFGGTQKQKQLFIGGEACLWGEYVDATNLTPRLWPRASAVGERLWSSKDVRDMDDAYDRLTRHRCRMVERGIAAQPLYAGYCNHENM
UniProt O94992, whole entry, looked up: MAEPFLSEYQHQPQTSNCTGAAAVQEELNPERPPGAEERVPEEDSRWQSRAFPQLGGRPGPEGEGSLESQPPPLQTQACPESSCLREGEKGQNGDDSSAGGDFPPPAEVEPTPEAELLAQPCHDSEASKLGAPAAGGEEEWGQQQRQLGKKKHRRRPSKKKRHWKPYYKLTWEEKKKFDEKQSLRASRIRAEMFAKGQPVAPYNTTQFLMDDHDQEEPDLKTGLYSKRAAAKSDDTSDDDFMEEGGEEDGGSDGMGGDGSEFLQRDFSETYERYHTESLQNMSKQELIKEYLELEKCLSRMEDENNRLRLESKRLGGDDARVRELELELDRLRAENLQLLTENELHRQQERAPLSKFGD
UniProt P56937: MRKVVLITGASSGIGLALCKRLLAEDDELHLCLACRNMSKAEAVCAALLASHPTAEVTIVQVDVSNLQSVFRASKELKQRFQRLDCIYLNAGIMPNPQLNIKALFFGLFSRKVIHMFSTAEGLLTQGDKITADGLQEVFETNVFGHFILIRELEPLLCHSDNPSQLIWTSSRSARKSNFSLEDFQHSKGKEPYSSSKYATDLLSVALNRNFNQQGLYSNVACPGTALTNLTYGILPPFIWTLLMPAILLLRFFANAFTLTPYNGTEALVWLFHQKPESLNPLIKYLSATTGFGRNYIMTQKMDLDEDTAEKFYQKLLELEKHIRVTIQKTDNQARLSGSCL
UniProt Q9P0W2: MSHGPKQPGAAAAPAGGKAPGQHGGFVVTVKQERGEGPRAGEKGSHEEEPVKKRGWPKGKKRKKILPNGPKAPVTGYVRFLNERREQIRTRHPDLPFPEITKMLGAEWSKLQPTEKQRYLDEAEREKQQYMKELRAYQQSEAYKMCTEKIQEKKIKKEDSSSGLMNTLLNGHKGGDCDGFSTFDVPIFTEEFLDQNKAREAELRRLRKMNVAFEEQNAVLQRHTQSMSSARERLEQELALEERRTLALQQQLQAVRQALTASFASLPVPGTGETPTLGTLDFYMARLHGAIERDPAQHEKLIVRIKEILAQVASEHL
UniProt Q5SSJ5: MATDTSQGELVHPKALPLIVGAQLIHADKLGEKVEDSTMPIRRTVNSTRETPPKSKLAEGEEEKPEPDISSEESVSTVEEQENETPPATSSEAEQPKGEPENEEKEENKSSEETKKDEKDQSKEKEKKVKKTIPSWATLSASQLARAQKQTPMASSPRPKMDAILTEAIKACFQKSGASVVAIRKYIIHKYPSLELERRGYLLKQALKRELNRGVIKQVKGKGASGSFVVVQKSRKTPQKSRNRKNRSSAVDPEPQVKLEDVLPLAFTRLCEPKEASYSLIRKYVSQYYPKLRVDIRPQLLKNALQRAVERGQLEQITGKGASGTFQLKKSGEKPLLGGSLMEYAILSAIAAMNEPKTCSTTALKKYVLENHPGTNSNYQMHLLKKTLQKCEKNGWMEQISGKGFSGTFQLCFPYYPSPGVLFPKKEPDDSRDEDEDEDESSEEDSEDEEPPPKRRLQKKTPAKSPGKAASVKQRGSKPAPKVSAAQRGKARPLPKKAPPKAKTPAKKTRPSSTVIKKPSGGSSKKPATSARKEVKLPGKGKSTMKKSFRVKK
UniProt P34931, whole entry, looked up: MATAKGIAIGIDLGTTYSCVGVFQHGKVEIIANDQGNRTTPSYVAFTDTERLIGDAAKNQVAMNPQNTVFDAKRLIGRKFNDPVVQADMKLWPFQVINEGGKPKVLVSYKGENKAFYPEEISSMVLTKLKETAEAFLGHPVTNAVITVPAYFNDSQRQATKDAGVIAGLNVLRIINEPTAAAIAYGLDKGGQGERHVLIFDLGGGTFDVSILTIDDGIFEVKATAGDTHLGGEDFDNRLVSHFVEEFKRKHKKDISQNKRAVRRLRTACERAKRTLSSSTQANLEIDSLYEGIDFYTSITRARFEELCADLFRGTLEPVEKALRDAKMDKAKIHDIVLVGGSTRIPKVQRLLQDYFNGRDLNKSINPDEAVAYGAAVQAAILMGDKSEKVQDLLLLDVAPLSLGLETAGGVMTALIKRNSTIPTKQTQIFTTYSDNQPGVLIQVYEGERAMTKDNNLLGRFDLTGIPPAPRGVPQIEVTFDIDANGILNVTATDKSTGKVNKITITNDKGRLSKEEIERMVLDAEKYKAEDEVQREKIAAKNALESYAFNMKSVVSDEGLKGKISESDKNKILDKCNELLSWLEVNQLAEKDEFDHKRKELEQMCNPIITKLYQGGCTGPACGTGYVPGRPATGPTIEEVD
UniProt Q8WVB3: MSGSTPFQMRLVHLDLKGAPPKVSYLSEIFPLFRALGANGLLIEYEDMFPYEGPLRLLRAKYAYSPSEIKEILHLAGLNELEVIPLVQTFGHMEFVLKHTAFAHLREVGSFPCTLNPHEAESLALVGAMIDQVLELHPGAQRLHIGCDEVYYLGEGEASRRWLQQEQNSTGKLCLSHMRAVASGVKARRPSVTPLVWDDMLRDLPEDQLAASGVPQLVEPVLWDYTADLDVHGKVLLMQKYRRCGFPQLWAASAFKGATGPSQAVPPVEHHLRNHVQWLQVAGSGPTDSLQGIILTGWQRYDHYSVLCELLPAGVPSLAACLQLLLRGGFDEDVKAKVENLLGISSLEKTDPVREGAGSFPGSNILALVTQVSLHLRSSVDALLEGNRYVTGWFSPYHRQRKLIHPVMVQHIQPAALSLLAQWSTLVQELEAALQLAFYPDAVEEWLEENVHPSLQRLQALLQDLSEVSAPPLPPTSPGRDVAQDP
UniProt Q00613: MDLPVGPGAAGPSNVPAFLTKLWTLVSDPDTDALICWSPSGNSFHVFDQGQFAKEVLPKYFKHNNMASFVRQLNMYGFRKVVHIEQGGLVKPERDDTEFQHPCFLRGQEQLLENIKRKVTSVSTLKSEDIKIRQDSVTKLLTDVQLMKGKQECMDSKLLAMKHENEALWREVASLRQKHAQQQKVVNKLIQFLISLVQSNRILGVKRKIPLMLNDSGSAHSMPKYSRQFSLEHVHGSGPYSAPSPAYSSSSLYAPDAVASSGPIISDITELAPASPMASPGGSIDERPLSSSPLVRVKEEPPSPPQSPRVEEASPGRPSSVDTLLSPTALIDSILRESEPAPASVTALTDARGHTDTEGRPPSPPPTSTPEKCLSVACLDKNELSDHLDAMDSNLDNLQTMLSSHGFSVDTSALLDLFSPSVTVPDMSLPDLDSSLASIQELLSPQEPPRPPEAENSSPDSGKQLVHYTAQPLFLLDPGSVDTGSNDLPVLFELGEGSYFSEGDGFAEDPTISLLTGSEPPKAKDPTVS
UniProt Q00839, whole entry, looked up: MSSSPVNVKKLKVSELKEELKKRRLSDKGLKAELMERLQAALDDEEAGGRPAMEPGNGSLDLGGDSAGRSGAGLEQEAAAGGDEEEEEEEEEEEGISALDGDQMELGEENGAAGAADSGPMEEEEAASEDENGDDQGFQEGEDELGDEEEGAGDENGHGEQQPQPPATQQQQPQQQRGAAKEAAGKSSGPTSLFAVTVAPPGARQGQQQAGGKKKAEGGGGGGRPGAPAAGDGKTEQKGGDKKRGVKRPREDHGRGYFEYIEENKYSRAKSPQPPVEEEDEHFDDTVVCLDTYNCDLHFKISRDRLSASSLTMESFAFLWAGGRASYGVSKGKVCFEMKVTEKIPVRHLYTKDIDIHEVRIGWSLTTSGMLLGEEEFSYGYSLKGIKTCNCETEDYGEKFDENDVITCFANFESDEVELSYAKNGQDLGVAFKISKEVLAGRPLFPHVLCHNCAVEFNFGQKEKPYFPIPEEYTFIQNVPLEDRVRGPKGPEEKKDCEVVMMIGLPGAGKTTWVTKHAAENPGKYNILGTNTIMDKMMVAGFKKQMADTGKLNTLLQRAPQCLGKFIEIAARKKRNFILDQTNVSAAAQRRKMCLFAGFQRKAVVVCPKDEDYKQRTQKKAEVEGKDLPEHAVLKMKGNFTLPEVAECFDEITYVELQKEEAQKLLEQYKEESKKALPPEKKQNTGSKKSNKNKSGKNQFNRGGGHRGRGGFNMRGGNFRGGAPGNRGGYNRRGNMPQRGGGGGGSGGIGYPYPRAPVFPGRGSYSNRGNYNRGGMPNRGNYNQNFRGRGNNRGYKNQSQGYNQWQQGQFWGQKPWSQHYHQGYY
UniProt Q8TDG4: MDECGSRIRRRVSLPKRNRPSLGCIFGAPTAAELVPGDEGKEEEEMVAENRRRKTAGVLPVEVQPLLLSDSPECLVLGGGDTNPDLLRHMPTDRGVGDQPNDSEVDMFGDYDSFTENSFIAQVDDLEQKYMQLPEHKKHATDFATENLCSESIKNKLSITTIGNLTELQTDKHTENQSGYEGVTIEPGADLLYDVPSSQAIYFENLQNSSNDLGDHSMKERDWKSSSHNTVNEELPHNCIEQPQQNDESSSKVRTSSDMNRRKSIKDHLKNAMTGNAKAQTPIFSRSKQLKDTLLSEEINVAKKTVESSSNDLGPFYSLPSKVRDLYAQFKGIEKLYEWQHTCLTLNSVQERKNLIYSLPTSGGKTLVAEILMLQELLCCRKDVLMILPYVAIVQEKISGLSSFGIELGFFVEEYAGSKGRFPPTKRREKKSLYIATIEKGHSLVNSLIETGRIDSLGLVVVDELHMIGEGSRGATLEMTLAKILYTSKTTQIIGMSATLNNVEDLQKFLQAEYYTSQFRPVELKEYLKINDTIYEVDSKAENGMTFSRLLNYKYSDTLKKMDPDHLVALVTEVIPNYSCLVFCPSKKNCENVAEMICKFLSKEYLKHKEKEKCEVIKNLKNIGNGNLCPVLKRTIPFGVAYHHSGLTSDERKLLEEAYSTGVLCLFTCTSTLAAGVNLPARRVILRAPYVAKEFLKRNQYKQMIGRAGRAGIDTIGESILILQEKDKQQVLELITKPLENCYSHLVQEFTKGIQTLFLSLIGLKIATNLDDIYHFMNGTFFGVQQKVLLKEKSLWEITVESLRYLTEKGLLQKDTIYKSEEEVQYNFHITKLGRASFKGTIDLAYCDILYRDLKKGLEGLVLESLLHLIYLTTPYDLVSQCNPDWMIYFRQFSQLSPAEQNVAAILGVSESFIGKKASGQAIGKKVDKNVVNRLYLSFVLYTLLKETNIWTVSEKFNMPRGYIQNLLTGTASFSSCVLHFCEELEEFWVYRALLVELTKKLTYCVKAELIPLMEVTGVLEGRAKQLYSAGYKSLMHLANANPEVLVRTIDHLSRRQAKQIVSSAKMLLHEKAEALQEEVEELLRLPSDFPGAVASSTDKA
UniProt P08397: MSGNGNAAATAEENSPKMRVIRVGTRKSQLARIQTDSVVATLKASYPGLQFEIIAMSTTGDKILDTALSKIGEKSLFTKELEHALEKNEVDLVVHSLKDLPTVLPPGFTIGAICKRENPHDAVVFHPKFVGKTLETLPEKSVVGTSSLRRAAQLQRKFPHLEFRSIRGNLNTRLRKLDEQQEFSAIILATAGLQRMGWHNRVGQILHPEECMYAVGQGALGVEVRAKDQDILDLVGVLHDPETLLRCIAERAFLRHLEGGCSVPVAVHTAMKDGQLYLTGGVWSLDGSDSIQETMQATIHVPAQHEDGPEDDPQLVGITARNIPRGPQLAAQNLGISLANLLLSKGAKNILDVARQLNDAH

Compound in experiment [1]: CCCS(=O)(=O)Nc1ccc(F)c(C(=O)c2c[nH]c3ncc(Cl)cc23)c1F
In a few lines:
as §1

Compound in the next experiment: CCN(CCCOc1ccc2c(Nc3cc(CC(=O)Nc4cccc(F)c4)[nH]n3)ncnc2c1)CCOP(=O)(O)O [barasertib]
A digest of the protocol:
as §1

Compound in experiment [2]: CC[C@@H]1C(=O)N(C)c2cnc(Nc3ccc(C(=O)NC4CCN(C)CC4)cc3OC)nc2N1C1CCCC1
A digest of the protocol: as §1

Compound in another experiment: CC[C@@H]1C(=O)N(C)c2cnc(Nc3ccc(C(=O)N[C@H]4CC[C@H](N5CCN(CC6CC6)CC5)CC4)cc3OC)nc2N1C(C)C [volasertib]
A digest of the protocol:
as §1

Compound in experiment [3]: CCn1c(C(=O)N(C2CC2)C2CC2)cc2c3c(ncn3C)c(Nc3cc(C)n(C)n3)nc21
A digest of the protocol: as §1

Compound in experiment [4]: CCn1cc(-c2ccnc3[nH]c(-c4cccc(CN(C)C)c4)cc23)c(-c2ccc(NC(=O)N(C)C)cc2)n1
A digest of the protocol:
as §1

Compound in experiment [5]: CN1CCC(CNc2ccc3ncc(-c4cccc(OC(F)(F)F)c4)n3n2)CC1
A digest of the protocol: as §1

Compound in a further experiment: CN1CCN(CCOc2cc(OC3CCOCC3)c3c(Nc4c(Cl)ccc5c4OCO5)ncnc3c2)CC1 [saracatinib]
In a few lines:
as §1

Compound in the next experiment: CN1CCN(c2nc(C3=C(c4c[nH]c5ccccc45)C(=O)NC3=O)c3ccccc3n2)CC1 [sotrastaurin]
In a few lines: as §1

The other results are listed elsewhere or left out.

As for HEXB (UniProt P07686), the log2 fold change with vemurafenib was inactive: -0.014; in [1], inactive: -0.002; with barasertib it was inactive: -0.006; in [2] it was inactive: -0.01; with volasertib it was inactive: -0.002; in [3], inactive: 0.026. Besides, the log2 fold change in [4] is inactive: 0.018; in [5], inactive: -0.029; with saracatinib it was inactive: 0.008; with sotrastaurin, inactive: 0.004.

With HSPA4 (UniProt P34932), the log2 fold change was inactive: -0.022 with vemurafenib; inactive: -0.004 in [1]; inactive: -0.011 in the experiment with barasertib; inactive: -0.011 in [2]; inactive: 0.001 in the experiment with volasertib; inactive: 0.007 in experiment [3]. The log2 fold change in experiment [4] was inactive: -0.049; in [5], inactive: 0.018; with saracatinib, inactive: -0.013; with sotrastaurin, inactive: 0.004.

With HEXIM1 (UniProt O94992), the log2 fold change in the experiment with vemurafenib was inactive: 0.049; in experiment [1], inactive: 0.014; in the experiment with barasertib it was inactive: -0.007; in experiment [2], inactive: 0.04; with volasertib it was inactive: 0.005; in [3], inactive: -0.007. In addition, the log2 fold change was inactive: 0.01 in [4], inactive: -0.012 in experiment [5], inactive: -0.017 with saracatinib and inactive: -0.025 in the experiment with sotrastaurin.

HSD17B7 (UniProt P56937): the log2 fold change is inactive: -0.161 with vemurafenib; inactive: 0.002 in experiment [1]; inactive: 0.064 in the experiment with barasertib; inactive: -0.071 in experiment [2]; inactive: 0.025 with volasertib; inactive: -0.091 in [3]. The log2 fold change in [4] was inactive: -0.06; in experiment [5], inactive: 0.022; with saracatinib, inactive: 0.292.

Turning to HMGN4 (UniProt O00479), the log2 fold change with vemurafenib is inactive: -0.015; in [1], inactive: 0.016; with barasertib it was inactive: -0.003; in [2] it was inactive: 0.453; with volasertib, inactive: 0.003; in [3], inactive: 0.022. Further, the log2 fold change in [4] was active: 1.29; in experiment [5], inactive: -0.595; in the experiment with saracatinib, inactive: -0.173; in the experiment with sotrastaurin, inactive: -0.099.

HNRNPM (UniProt M0R019): in the experiment with vemurafenib, the log2 fold change was inactive: -0.137.

As for HMG20B (UniProt Q9P0W2), the log2 fold change with vemurafenib was inactive: -0.205; in experiment [1] it was inactive: -0.006; with barasertib, inactive: 0.018; in experiment [2], inactive: 0.056; in the experiment with volasertib, inactive: -0.028; in experiment [3], inactive: -0.038. The log2 fold change in [4] is inactive: 0.007; in [5], inactive: 0.039; in the experiment with saracatinib, inactive: 0.058; in the experiment with sotrastaurin, inactive: 0.045.

As to HP1BP3 (UniProt Q5SSJ5), the log2 fold change is inactive: 0.03 with vemurafenib; inactive: 0.005 in experiment [1]; inactive: 0.028 in the experiment with barasertib; inactive: 0.015 in experiment [2]; inactive: -0.006 with volasertib; inactive: 0.002 in experiment [3]. Also, the log2 fold change in experiment [4] was inactive: 0.003; in [5] it was inactive: -0.023; with saracatinib, inactive: 0.016; in the experiment with sotrastaurin, inactive: -0.002.

Turning to HSPA1L (UniProt P34931), the log2 fold change was inactive: -0.075 in the experiment with vemurafenib; inactive: -0.059 in [1]; inactive: -0.095 in the experiment with barasertib; inactive: -0.128 in [2]; inactive: -0.004 with volasertib; inactive: -0.225 in experiment [3]. For the same target, the log2 fold change in experiment [4] was inactive: 0.039; in [5] it was inactive: 0.029; in the experiment with saracatinib, inactive: 0.043; with sotrastaurin, inactive: 0.064.

Regarding HEXD isoform 2 (UniProt Q8WVB3), the log2 fold change with vemurafenib was inactive: 0.008; in experiment [1], inactive: -0.014; with barasertib, inactive: 0.01; in [2] it was inactive: 0.072; in the experiment with volasertib, inactive: -0.007; in [3], inactive: 0.122. Besides, the log2 fold change in experiment [4] was inactive: -0.166; in experiment [5], inactive: 0.295.

HSF1 (UniProt Q00613): the log2 fold change with vemurafenib is inactive: -0.022; in experiment [1], inactive: 0.036; with barasertib, inactive: 0.022; in experiment [2], inactive: -0.007; with volasertib, inactive: -0.016; in experiment [3], inactive: -0.016. Further, the log2 fold change in experiment [4] is inactive: 0.013; in [5], inactive: -0.108; in the experiment with saracatinib, inactive: 0.015; with sotrastaurin it was inactive: 0.017.

Consider HNRNPU (UniProt Q00839), for which the log2 fold change was inactive: -0.041 in the experiment with vemurafenib; inactive: 0.007 in experiment [1]; inactive: 0.01 with barasertib; inactive: -0.02 in experiment [2]; inactive: -0.016 with volasertib; inactive: 0.033 in experiment [3]. Besides, the log2 fold change is inactive: 0.015 in experiment [4], inactive: -0.055 in experiment [5], inactive: -0.026 with saracatinib and inactive: 0.008 with sotrastaurin.

Take HIC2 (UniProt Q96JB3): the log2 fold change was inactive: 0.043 with vemurafenib; inactive: 0.023 in [1]; inactive: -0.063 with barasertib; inactive: 0.03 in experiment [2]; inactive: 0.006 with volasertib; inactive: -0.022 in experiment [3]. Besides, the log2 fold change was inactive: -0.103 in experiment [4], inactive: 0.019 in experiment [5], inactive: -0.067 with saracatinib and inactive: -0.043 with sotrastaurin.

Consider HERC2 (UniProt O95714), for which the log2 fold change was inactive: 0.034 in the experiment with vemurafenib; inactive: 0.004 in experiment [1]; inactive: 0.038 with barasertib; inactive: -0.038 in [2]; inactive: -0.01 in the experiment with volasertib; inactive: 0.039 in [3]. The log2 fold change was inactive: 0.032 in experiment [4], inactive: -0.021 in experiment [5], inactive: 0.037 with saracatinib and inactive: 0.047 with sotrastaurin.

Take HELQ (UniProt Q8TDG4): the log2 fold change with vemurafenib is inactive: 0.12; in experiment [1] it was inactive: -0.064; with barasertib it was inactive: 0.036; in experiment [2], inactive: 0.048; with volasertib, inactive: 0.01; in [3] it was inactive: -0.044. Also, the log2 fold change was inactive: 0.038 in experiment [4], inactive: -0.104 in [5], inactive: -0.058 in the experiment with saracatinib and inactive: 0.057 with sotrastaurin.

Regarding HMBS (UniProt P08397), the log2 fold change is inactive: -0.021 in the experiment with vemurafenib; inactive: -0.007 in [1]; inactive: -0.039 with barasertib; inactive: 0.043 in [2]; inactive: 0.044 with volasertib; inactive: 0 in experiment [3]. Further, the log2 fold change in [4] is inactive: 0.019; in experiment [5], inactive: -0.004; with saracatinib, inactive: -0.023; with sotrastaurin it was inactive: -0.003.

(Values after the supplement of paper PMC10849652.)
